Experimental data from patent US8268792B2, “Use of an active ingredient combination that contains hydroxystilbene for preventing and/or treating diseases” (Carl-Friedrich Spaich, priority 2005, dated 2012).
Some results were stated once for a whole list of compounds, not compound by compound.

Molecular target: T1, human androgen receptor (Homo sapiens, UniProt P10275)
T1 construct: expressed in transfected cells; host or cells: Saccharomyces cerevisiae
T1 sequence (P10275 1-920): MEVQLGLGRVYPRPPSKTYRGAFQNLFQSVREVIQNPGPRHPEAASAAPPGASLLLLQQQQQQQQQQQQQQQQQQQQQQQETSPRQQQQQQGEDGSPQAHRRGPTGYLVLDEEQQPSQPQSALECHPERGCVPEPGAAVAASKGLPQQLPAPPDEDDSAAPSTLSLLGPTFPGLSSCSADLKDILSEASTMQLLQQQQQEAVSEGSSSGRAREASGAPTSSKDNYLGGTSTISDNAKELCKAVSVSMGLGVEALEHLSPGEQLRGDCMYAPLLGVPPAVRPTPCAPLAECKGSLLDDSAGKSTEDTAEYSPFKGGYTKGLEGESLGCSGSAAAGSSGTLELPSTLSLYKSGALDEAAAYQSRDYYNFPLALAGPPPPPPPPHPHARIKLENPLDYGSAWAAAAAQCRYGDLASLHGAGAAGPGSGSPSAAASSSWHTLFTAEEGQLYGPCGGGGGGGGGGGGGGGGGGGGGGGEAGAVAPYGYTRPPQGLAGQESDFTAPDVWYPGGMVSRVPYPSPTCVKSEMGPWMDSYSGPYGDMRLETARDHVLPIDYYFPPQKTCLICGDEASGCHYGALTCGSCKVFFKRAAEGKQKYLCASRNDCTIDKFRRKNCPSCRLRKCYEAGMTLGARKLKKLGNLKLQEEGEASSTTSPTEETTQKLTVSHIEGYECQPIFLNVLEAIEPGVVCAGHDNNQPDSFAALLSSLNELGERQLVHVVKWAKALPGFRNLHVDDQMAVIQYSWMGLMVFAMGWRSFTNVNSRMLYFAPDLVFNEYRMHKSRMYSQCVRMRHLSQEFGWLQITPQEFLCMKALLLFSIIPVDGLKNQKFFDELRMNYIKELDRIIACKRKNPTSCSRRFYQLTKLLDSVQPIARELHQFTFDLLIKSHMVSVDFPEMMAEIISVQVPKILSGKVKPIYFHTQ
Test: Recombinant yeast screen, Saccharomyces cerevisiae transfected with human androgen receptor
Format: cell-based
Details: androgen receptor-expressing yeast cells, in the presence of DHT

With `COc1ccc(C=Cc2cccc(O)c2)cc1O` [deoxyrhapontigenin, 3′,5-Dihydroxy-4′-methoxystilbene] the “concentration range of antiandrogenic effect (preventing the binding of DHT to the androgen receptor)” value was 1 to 10 µM.
